Results reported in publication PMC3900656.

Protein sequences, listed by entry. Tags and fused reporters are not part of them.
UniProt P01100: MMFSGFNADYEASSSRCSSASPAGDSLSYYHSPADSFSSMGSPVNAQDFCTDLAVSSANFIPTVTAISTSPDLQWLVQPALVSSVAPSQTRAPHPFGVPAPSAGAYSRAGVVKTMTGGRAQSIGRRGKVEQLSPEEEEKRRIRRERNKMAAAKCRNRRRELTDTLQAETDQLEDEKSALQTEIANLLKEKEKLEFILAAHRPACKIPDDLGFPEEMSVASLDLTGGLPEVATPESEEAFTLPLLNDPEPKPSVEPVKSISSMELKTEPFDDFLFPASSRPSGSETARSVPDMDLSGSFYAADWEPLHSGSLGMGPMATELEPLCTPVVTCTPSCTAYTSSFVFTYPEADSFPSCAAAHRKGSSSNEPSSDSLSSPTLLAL

How the values were obtained:
[1] = biological target: c-Fos (human (endogenous in PCI13)) (UniProt P01100); assay: affinity purification with mass spectrometry; RIPA lysate of mock control cells; c-Fos immunoprecipitated (µMACS Protein A/G MicroBeads), reducing SDS-PAGE, compared with COLXVI cells
[2] = biological target: c-Fos (human (endogenous in PCI13)) (UniProt P01100); assay: affinity purification with mass spectrometry; RIPA lysate of COLXVI cells; c-Fos immunoprecipitated (µMACS Protein A/G MicroBeads), reducing SDS-PAGE, 58 kDa band excised, tryptic digest, nano-LC-MS/MS

- binding [1]: binds weakly
- binding [2]: binds
B1: dyskerin (DKC1) (protein, UniProt O60832 1-514)
chain: MADAEVIILPKKHKKKKERKSLPEEDVAEIQHAEEFLIKPESKVAKLDTSQWPLLLKNFDKLNVRTTHYTPLACGSNPLKREIGDYIRTGFINLDKPSNPSSHEVVAWIRRILRVEKTGHSGTLDPKVTGCLIVCIERATRLVKSQQSAGKEYVGIVRLHNAIEGGTQLSRALETLTGALFQRPPLIAAVKRQLRVRTIYESKMIEYDPERRLGIFWVSCEAGTYIRTLCVHLGLLLGVGGQMQELRRVRSGVMSEKDHMVTMHDVLDAQWLYDNHKDESYLRRVVYPLEKLLTSHKRLVMKDSAVNAICYGAKIMLPGVLRYEDGIEVNQEIVVITTKGEAICMAIALMTTAVISTCDHGIVAKIKRVIMERDTYPRKWGLGPKASQKKLMIKQGLLDKHGKPTDSTPATWKQEYVDYSESAKKEVVAEVVKAPQVVAEAAKTAKRKRESESESDETPPAAPQLIKKEKKKSKKDKKAKAGLESGAEPGDGDSDTTKKKKKKKKAKEVELVSE

No constants are given. Whether binding was seen depends on the method and setting. In cells and extracts the contact can be indirect. These calls come from enrichment with a bait or labelling near it, and not all partners need be listed.
